Measured values published in PMC11722412.
No constants are given. Whether binding was seen depends on the method and setting. Binding can be weak; no strength is given.

The chains behind the UniProt entries cited, without tags or fusion partners. Where a name states a change or a piece, a line headed by the entry shows the natural chain unless it says otherwise.
UniProt Q95X71: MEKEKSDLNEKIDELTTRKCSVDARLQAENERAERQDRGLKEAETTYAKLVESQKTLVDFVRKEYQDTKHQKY

Target: SSNA-1, the Caenorhabditis elegans ortholog of Sjogren's Syndrome Nuclear Antigen 1 (C. elegans) (UniProt Q95X71)
Test: co-sedimentation; purified proteins; SSNA-1 filaments (10 μM) or GMPCPP microtubules (10 μM) incubated 10 min at room temperature with ZYG-1 or BSA (1.25 μM), 30 μL; 80,000 rpm (278,088 x g), TLA-120.2, 10 min, 25°C; soluble and pellet fractions by SDS-PAGE and immunoblotting; in triplicate; both purified

- binding: binds
B1: ZYG-1 (enzyme, UniProt Q9GT24 1-706)
chain: MSGGKSGSRLSAYSHLKEIGKGGFGVVYAAQRENGEKVAIKRIDKKVPKNRVWTEIQTMKELKKSKYVVEFYEDFVEDGYTYIVMELCEGGSLQAYVREHGALDDATAVHVLRQLISAVSFMHRVNVIHRDLSAGNVFIKDSKKKKMTVKLGDFGLATTLGRGETTCTIVGTPGFIAPQVYDQEYTQSADVYSLGAVLYTMLTARNPPPKGLPPTCGMSPNAARLVEQMMDTDAKKRIPLTQIVLSEFMYENTNENAVIFSREHSRDGRRQRSREPVRSSRDDRSRDGRALIRSSSQPAHSGRAPLSNRPIHDRMPSTSSRGFDSERGRERDRDSGRGTVPPSREDRNRSQLWPIRMDRLEGQRVCTAGGRYIVELDTRCRFEVAAQGNFVKRILIVEVDEMVQTVYVHRIPDRTVRGRNGEEELITLTNNPFVYTSYSQMPKEVQNDYMRLQKMVAVTISGRVAKVTFRRPSQFPDAQAQLMENGDLRIKLPRSVIVRKMDNGEIFNCIDGIATQKQAVSGITLTKVNEVYKYLIRFEQCLNGMDRGMVCFPIVFSAGTNMVGSSPSSLMPSGSSQTSRFPFSNLSNNQPSLVPHSAPFLTKPTSSQRASSANVQRRVSTDENSSPSVAPSKYKIKIDPTTQKVRSIQATDGRVLRCSTSKADQFIFTDPAIRPDDQRFMRTDRVPDRASEMLHTLCERMRKLHQ
